The target of assay [1] is V5-tagged HLA-DRB1 T129A (T129A glyco-fucomutant) (human). Nature of the assay: AAL lectin pulldown and immunoblot, WM793 cells. On the technique in general: Immunoblotting shows a protein as a band on a membrane.
The target of assay [2] is V5-tagged HLA-DRB1 N48G (N48G glyco-fucomutant) (human). Nature of the assay: AAL lectin pulldown and immunoblot, WM793 cells.
Assay [3] concerns the target V5-tagged wild-type HLA-DRB1 (WT) (human). Nature of the assay: AAL lectin pulldown and immunoblot, WM793 cells.
Assay [4] shares this target. Nature of the assay: V5 immunoprecipitation and immunoblot analysis, WM793 cells.

Results are given in words; binding and its absence hold for the method and conditions named. For some of these results: Binding can be weak; no strength is given. For some of these results: Binding seen in cells or lysates may run through a third protein.

B1: Aleuria aurantia lectin (AAL) (protein, UniProt P18891 2-313, looked up)
chain: PTEFLYTSKIAAISWAATGGRQQRVYFQDLNGKIREAQRGGDNPWTGGSSQNVIGEAKLFSPLAAVTWKSAQGIQIRVYCVNKDNILSEFVYDGSKWITGQLGSVGVKVGSNSKLAALQWGGSESAPPNIRVYYQKSNGSGSSIHEYVWSGKWTAGASFGSTVPGTGIGATAIGPGRLRIYYQATDNKIREHCWDSNSWYVGGFSASASAGVSIAAISWGSTPNIRVYWQKGREELYEAAYGGSWNTPGQIKDASRPTPSLPDTFIAANSSGNIDISVFFQASGVSLQQWQWISGKGWSIGAVVPTGTPAGW
B1: the binding result in assay [1] is “binds”; in assay [2], “no binding”; in assay [3], “binds”; in assay [4] it was “binds”.

The record behind these values is US20240197761A1, “FUCOSYLATION AND IMMUNE MODULATION IN CANCER” (H. LEE MOFFITT CANCER CENTER AND RESEARCH INSTITUTE, INC., priority 2021, published 2024).
